Reference: patent US8691944
Results are given in words; binding and its absence hold for the method and conditions named. Some results given as binding are weak or reduced against the parent protein; the word gives no strength.

By UniProt entry, the sequences of proteins in these tests, tags left out. Where a name states a change or a piece, a line headed by the entry shows the natural chain unless it says otherwise. Chains listed by the source or under a name are the forms on record and can include a tag or linker. Residues count along the entry.
UniProt P01127, residues 82-190: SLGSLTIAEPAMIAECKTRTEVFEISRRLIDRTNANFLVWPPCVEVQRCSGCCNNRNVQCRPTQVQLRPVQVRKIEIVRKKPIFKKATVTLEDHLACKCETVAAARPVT
UniProt P09038, residues 143-288: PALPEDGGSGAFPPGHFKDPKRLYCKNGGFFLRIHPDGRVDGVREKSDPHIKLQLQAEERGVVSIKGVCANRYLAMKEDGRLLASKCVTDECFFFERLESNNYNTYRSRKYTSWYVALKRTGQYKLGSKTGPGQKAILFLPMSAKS
UniProt P01137, residues 279-390: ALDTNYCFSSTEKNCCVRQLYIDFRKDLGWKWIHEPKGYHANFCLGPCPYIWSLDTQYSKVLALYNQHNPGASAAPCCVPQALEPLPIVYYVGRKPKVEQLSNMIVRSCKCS
vascular endothelial growth factor A (VEGF-A) (P15692, form named): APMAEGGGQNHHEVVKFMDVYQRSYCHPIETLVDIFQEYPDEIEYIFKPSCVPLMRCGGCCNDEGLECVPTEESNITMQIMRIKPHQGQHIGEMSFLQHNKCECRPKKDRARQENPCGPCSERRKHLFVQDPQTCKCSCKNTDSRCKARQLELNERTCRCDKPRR
FNIII1-7 (P02751, residues 610-1265): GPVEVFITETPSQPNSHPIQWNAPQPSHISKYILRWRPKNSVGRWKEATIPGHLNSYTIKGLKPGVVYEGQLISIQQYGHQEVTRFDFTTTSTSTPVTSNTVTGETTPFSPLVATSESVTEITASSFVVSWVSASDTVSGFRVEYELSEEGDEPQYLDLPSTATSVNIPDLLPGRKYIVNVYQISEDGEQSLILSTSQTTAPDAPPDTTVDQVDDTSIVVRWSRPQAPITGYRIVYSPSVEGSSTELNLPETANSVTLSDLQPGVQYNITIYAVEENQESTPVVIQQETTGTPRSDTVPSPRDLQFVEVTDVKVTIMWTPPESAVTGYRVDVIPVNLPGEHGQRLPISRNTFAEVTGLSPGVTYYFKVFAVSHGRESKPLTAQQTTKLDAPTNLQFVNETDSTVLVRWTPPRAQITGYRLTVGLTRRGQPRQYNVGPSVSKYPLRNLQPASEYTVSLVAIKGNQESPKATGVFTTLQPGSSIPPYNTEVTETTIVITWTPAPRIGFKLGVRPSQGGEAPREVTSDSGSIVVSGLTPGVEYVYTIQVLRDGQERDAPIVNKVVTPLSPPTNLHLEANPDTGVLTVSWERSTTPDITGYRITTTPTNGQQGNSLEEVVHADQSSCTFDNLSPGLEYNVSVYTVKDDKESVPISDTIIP
FNIII12-13 (P02751, residues 1812-1992): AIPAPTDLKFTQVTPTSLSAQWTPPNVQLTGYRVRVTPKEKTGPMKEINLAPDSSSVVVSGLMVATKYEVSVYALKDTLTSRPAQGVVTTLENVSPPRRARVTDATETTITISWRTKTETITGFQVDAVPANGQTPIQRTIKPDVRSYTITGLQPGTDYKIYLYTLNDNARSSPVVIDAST
FNIII12-15 (H), heparinII-binding domain of fibronectin (P02751, form named): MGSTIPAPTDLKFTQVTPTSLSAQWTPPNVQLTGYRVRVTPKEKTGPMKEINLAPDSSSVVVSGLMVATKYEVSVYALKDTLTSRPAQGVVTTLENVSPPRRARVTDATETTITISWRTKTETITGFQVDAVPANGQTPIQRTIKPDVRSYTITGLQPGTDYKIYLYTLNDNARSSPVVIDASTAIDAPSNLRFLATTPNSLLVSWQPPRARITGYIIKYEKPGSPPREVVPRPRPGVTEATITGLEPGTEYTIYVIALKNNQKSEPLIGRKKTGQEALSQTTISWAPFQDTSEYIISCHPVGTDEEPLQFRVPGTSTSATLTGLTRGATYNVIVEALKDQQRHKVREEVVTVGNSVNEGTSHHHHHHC
FNIII12-14 (P02751, form named): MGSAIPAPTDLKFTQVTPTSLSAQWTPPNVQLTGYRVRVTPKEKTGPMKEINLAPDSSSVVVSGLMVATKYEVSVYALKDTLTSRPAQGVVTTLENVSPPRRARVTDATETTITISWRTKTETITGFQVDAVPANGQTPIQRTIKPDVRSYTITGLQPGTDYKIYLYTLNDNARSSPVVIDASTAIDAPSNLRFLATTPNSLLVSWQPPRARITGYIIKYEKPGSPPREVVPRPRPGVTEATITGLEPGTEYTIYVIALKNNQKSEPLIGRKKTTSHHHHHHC
FNIII1 (P02751, form named): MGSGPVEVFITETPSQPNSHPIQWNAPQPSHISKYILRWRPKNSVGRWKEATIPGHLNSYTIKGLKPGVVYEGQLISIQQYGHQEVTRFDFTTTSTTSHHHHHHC
FNIII1-2 (P02751, form named): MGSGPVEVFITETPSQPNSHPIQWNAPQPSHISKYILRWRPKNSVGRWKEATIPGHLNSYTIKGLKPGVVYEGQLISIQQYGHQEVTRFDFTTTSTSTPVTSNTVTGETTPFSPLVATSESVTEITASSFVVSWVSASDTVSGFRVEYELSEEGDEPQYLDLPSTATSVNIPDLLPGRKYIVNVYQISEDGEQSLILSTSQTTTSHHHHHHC
FNIII1-11 (P02751, form named): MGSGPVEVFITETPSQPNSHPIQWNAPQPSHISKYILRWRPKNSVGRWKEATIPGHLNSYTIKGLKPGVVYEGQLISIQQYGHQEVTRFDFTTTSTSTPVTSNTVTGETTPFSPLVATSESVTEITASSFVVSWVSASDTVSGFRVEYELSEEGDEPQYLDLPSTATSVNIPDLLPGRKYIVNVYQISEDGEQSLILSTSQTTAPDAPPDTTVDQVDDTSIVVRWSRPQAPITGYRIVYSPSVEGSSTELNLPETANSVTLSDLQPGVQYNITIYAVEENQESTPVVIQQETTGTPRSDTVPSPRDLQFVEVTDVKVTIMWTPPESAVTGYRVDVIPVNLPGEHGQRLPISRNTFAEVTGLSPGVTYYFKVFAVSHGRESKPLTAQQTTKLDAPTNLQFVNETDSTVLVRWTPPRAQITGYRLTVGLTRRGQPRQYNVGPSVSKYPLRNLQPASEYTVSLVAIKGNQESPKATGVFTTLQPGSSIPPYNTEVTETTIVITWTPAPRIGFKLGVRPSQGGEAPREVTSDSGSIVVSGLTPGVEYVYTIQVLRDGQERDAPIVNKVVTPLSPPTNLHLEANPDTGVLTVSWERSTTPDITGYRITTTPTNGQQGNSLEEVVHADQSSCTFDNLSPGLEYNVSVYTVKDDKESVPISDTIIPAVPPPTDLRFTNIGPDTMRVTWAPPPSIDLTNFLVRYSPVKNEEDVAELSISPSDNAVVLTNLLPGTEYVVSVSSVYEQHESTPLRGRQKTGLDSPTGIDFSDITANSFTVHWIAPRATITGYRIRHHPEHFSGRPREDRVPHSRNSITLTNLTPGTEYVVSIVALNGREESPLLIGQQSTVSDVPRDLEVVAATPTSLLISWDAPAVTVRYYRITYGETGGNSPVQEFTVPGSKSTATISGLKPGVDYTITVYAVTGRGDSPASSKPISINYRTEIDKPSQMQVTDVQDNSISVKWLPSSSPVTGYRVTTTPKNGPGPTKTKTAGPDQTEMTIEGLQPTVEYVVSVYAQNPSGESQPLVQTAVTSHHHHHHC
FNIII2 (P02751, form named): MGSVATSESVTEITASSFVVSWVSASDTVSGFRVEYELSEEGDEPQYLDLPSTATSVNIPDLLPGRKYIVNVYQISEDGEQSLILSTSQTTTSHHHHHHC
FNIII12-V15 (HV), composite heparinII-binding and variably-spliced IIICS domains of fibronectin (P02751, form named): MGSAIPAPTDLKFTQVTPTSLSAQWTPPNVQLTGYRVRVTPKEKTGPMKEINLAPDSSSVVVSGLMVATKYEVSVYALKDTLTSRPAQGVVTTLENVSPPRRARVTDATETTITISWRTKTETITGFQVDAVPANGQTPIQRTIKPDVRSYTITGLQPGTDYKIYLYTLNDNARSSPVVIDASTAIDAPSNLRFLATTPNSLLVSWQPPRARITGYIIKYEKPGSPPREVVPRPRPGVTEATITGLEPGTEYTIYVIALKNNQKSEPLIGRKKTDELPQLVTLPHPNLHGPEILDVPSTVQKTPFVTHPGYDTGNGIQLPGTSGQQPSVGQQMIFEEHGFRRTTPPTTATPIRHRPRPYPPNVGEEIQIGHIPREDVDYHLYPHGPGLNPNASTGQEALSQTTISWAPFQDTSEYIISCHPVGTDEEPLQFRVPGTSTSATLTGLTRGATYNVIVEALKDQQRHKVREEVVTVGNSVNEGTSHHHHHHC

Columns and labels:
[1] = target: platelet-derived growth factor-BB (PDGF-BB) (UniProt P01127); experiment: binding assay, method not restated
[2] = target: basic fibroblast growth factor (bFGF, FGF-2) (UniProt P09038); experiment: closing statement on the data presented
[3] = target: platelet-derived growth factor-BB (PDGF-BB) (UniProt P01127); experiment: closing statement on the data presented
[4] = target: T1, transforming growth factor β2 (TGF-β2) (UniProt P61812); experiment: closing statement on the data presented
T1 sequence (looked up): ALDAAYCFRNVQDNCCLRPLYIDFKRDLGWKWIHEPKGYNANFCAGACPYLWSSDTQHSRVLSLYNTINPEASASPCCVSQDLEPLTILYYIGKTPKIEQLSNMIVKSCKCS

[5] = target: transforming growth factor-β1 (TGF-β1) (UniProt P01137); experiment: closing statement on the data presented
[6] = target: basic fibroblast growth factor (bFGF, FGF-2) (UniProt P09038); experiment: binding assay, method not restated
[7] = target: transforming growth factor-β1 (TGF-β1) (UniProt P01137); experiment: binding assay, method not restated
[8] = target: vascular endothelial growth factor A (VEGF-A) (UniProt P15692); experiment: binding assay, method not restated

Substance	binding [1]	binding [2]	binding [3]	binding [4]	binding [5]	binding [6]	binding [7]	binding [8]
FNIII12-15 (H), heparinII-binding domain of fibronectin (from UniProt P02751 1631-1987)	binds	binds	binds	binds	binds			
FNIII1-7 (from UniProt P02751 610-1265)	binds					binds	binds	binds
FNIII1-11 (from UniProt P02751 610-1630)	binds						binds	
FNIII12-V15 (HV), composite heparinII-binding and variably-spliced IIICS domains of fibronectin (from UniProt P02751 1812-2288)	binds	binds	binds	binds	binds			

Next, values leading:

binding [1]	binding [2]	binding [3]	binding [4]	binding [5]	binding [6]	binding [7]	binding [8]	Substance
binds								FNIII12-14 (from UniProt P02751 1812-2082)
binds					binds	binds	binds	FNIII1 (from UniProt P02751 610-702)
binds								FNIII12-13 (from UniProt P02751 1812-1992)
binds	binds	binds	binds	binds	binds	binds	binds	FNIII1-2 (from UniProt P02751 610-809)
binds					binds	binds	binds	FNIII2 (from UniProt P02751 722-809)
